# Laboratory results: PubChem BioAssay AID493014 (National Center for Advancing Translational Sciences (NCATS), 2011)
# The other results are listed elsewhere or left out. The main result of the screen is listed elsewhere. These columns were measured beside it and carry no call. Compounds called inactive in the main read-out are mostly missing here. Words in brackets tell the shape of the fitted curve; partial curves, single points and poor fits give uncertain potencies.
# Experiment: qHTS Assay to Find Inhibitors of Chronic Active B-Cell Receptor Signaling
# Details: ABC-DLBCL IkBa-CBG/CBR reporter, luminescence ratio (green luciferase fused to IkBa over red control in TMD8 lymphoma cells), 4 h
# Outline: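 Concentration-response series (up to 46 uM) were applied to TMD8 dual-reporter cells for 4 h at 37C with doxycycline. Green/red ratio, after filter-overlap correction, defined %Activity; red signal alone was normalised to basal cells and zero luminescence.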
# [1] = measured here: CBR red luminescence, cell number
# [2] = measured here: IkBa-CBG green luminescence
compound,measurement,setting,value
CCn1c(SCC(=O)NCc2ccco2)nc2c(c1=O)SC(C)C2 (stereo not drawn),AC50,[1],"32.6 µM [falling, single point]"
COc1ccccc1CN1CC(C(=O)NCCn2nc(C)cc2C)CCC1=O (stereo not drawn),AC50,[1],"35.5 µM [rising, single point]"
same,AC50,[2],"28.2 µM [falling, single point]"
Cn1c(C(=O)N2CCN(C(=O)c3ccco3)CC2)cc2c(=O)n3ccccc3nc21,AC50,[1],"6.51 µM [rising, single point]"
Cc1occc1C(=O)N/N=C/c1cccnc1,AC50,[1],"11.2 µM [falling, partial curve]"
O=C(Nc1cccc(C(F)(F)F)c1)N1CCN(C(=O)Nc2cccc(C(F)(F)F)c2)CC1,AC50,[1],"29.1 µM [rising, single point]"
CCOC(=O)[C@H]1[C@H]2COc3ccc(Cl)cc3[C@@H]2N2C(=O)CN(Cc3ccc(F)cc3)C(=O)[C@@]12C,AC50,[1],"2.59 µM [rising, partial curve, poor fit]"
CC(=O)c1c(C)n(C)c2ccc(OC(=O)c3ccco3)cc12,AC50,[1],"2.91 µM [rising, full curve, poor fit]"
CCCCN(C(=O)C1=CC=CN2CCS(=O)(=O)N=C12)c1ccccc1,AC50,[1],"0.82 µM [falling, full curve, poor fit]"
Clc1ccc(OCc2nc(-c3ccc(Br)o3)no2)cc1,AC50,[1],"2.31 µM [rising, partial curve]"
CCOc1ccc(C(=O)Nc2cc(C)ccn2)cc1,AC50,[1],"10 µM [falling, partial curve]"
CC(=O)N1c2ccc(S(=O)(=O)N3CCC(C(=O)NCc4ccccc4)CC3)cc2CC1C (stereo not drawn),AC50,[1],"6.31 µM [rising, full curve, poor fit]"
O=C(COc1ccccc1)NCC(=O)N/N=C/c1cccs1,AC50,[1],"10 µM [rising, partial curve]"
Cc1ccc(NC(=O)Cc2noc3ccccc23)c(C)c1,AC50,[1],"29.1 µM [rising, single point]"
COc1cccc(NC(=O)COC(=O)/C=C/c2c(C)nn(-c3ccccc3)c2C)c1,AC50,[2],"23.1 µM [rising, partial curve, poor fit]"
O=C(Nc1ccc2nc3n(c(=O)c2c1)CCCC3)c1cc([N+](=O)[O-])ccc1F,AC50,[1],"9.2 µM [falling, partial curve]"
same,AC50,[2],"8.2 µM [falling, partial curve, poor fit]"
O=C(CSCc1ccc(Cl)cc1)Nc1cc([N+](=O)[O-])ccc1O,AC50,[1],"35.5 µM [falling, single point]"
C/C(=N\NC(=S)NC1CCCCC1)c1cccs1,AC50,[1],"3.55 µM [rising, partial curve, poor fit]"
Cc1ccc(N/N=C/c2ccncc2)cc1,AC50,[1],"7.08 µM [rising, full curve, poor fit]"
CC(=O)Nc1ccc(S(=O)(=O)N(Cc2ccccc2)c2ccccc2)cc1,AC50,[1],"35.5 µM [rising, single point]"
Cc1csc(Cn2c(CN(C)C)nc3ccccc3c2=O)n1,AC50,[1],"5.8 µM [falling, single point]"
Cc1nc(Nc2ccc(C(=O)O)cc2)nc(Nc2ccc(C(=O)O)cc2)c1[N+](=O)[O-],AC50,[1],"10 µM [falling, partial curve]"
O=C(Nc1ccc(F)cc1)c1ccc2ncsc2c1,AC50,[1],"20 µM [falling, single point]"
CC(=O)c1cccc(NC(=O)c2cc3nc(C)cc(C)n3n2)c1,AC50,[1],"14.6 µM [rising, partial curve, poor fit]"
O=C(CCC1CCCC1)c1c(O)c2ccccc2oc1=O,AC50,[1],"4.11 µM [falling, partial curve]"
COc1ccc(NC(=O)CN2CCN(c3nc(-c4ccc(F)cc4)cs3)CC2)c(OC)c1,AC50,[1],"6.31 µM [rising, partial curve, poor fit]"
O=C(c1c[nH]c(C(=O)C(Cl)(Cl)Cl)c1)c1ccc(F)cc1F,AC50,[1],"8.91 µM [falling, partial curve, poor fit]"
CNC(=O)[C@H]1O[C@@H](n2cnc3c(NCc4cccc(I)c4)nc(Cl)nc32)[C@H](O)[C@@H]1O,AC50,[1],"2.31 µM [rising, full curve]"
same,AC50,[2],"8.2 µM [falling, partial curve]"
CCOC(=O)c1c(NC(=O)C2C3CCC(O3)C2C(=O)O)sc2c1CCCC2 (stereo not drawn),AC50,[1],"35.5 µM [falling, single point]"
O=[N+]([O-])c1ccc(N2CCN(S(=O)(=O)c3ccc4ccccc4c3)CC2)cc1NCC1CCCO1 (stereo not drawn),AC50,[1],"32.6 µM [falling, single point]"
CN(CCOc1ccc(Cl)cc1)CC(=O)Nc1ccc(OC(F)F)cc1,AC50,[1],"25.1 µM [falling, single point]"
COc1cc(Br)cc(C=Nc2cccc(C(F)(F)F)c2)c1O,AC50,[1],"29.1 µM [falling, single point]"
COc1ccccc1CNC(=O)CNCCc1ccc(OC)c(OC)c1,AC50,[1],"14.1 µM [rising, single point]"
CC1Cc2nc(SCC(=O)N3CCCc4ccccc43)n(C)c(=O)c2S1 (stereo not drawn),AC50,[1],"20.6 µM [falling, single point]"
NNS(=O)(=O)c1ccc(Cc2ncc(C(F)(F)F)cc2Cl)s1,AC50,[1],"29.1 µM [rising, single point]"
Cc1ccc(S(=O)(=O)Nc2cnn(-c3ccccc3)c(=O)c2Cl)cc1,AC50,[1],"0.282 µM [falling, full curve, poor fit]"
O=C(O)c1ccc(NC(=S)NC2CCCCC2)cc1,AC50,[1],"7.31 µM [falling, partial curve]"
O=C1c2cccc3cccc(c23)C(=O)N1CCN1CCN(CC(O)COc2ccc3ccccc3c2)CC1 (stereo not drawn),AC50,[1],"3.66 µM [rising, full curve, poor fit]"
Cc1noc(C)c1C(=O)OCC(=O)Nc1ccccc1SCC#N,AC50,[1],"3.66 µM [falling, full curve, poor fit]"
O=C(N/N=C/c1ccccc1)c1n[nH]c2c1CCCC2,AC50,[1],"2.24 µM [falling, full curve]"
COc1ccc(OC)c(S(=O)(=O)N2CCC3(CC2)OCCN3S(=O)(=O)c2cccs2)c1,AC50,[1],"2.31 µM [rising, full curve, poor fit]"

# Some of the entries above, set out differently:
compound | measurement | setting | value
O=C(N/N=C/c1ccccc1)c1n[nH]c2c1CCCC2 | AC50 | [1] | 2.24 µM [falling, full curve]
COc1ccc(OC)c(S(=O)(=O)N2CCC3(CC2)OCCN3S(=O)(=O)c2cccs2)c1 | AC50 | [1] | 2.31 µM [rising, full curve, poor fit]
